The text below walks through data of paper PMC4117747, “The N-terminus of Mcm10 is important for interaction with the 9-1-1 clamp and in resistance to DNA damage” (Nucleic Acids Research, 2014).

Substitutions are numbered along the chain they refer to. Results are given in words; binding and its absence hold for the method and conditions named. For some assays here: In cells and extracts the contact can be indirect. Some entries that bind do so weakly or less than the wild type. Where a sequence is shown, tags or fusion partners need not be part of it.

The target of assay [1] is T1, Mcm10 (LexA fusion, wild type) (S. cerevisiae) (UniProt P32354).
T1 sequence: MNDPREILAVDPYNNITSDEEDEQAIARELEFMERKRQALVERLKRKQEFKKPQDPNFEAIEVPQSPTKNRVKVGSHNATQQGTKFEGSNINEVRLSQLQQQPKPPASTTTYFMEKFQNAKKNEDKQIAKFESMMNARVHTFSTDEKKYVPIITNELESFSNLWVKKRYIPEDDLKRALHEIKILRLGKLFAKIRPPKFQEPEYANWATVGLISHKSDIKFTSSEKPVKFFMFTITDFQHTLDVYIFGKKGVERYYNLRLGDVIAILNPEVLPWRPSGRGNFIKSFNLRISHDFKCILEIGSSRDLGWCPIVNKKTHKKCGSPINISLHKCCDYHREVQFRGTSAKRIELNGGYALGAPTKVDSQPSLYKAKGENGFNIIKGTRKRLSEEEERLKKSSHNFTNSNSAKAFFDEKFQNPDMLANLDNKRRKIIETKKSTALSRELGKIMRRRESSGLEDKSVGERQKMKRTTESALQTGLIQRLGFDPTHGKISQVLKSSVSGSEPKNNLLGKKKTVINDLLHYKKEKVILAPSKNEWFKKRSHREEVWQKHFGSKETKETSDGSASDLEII
The assay is described as follows: co-IP; overexpressed LexA-tagged Mcm10 constructs with HA-tagged Mec3; anti-LexA beads pull down Mcm10; cells untreated or exposed to UV light.

In assay [2] the target is T2, Mcm10Δ100 (LexA fusion) (S. cerevisiae) (UniProt P32354).
T2 sequence: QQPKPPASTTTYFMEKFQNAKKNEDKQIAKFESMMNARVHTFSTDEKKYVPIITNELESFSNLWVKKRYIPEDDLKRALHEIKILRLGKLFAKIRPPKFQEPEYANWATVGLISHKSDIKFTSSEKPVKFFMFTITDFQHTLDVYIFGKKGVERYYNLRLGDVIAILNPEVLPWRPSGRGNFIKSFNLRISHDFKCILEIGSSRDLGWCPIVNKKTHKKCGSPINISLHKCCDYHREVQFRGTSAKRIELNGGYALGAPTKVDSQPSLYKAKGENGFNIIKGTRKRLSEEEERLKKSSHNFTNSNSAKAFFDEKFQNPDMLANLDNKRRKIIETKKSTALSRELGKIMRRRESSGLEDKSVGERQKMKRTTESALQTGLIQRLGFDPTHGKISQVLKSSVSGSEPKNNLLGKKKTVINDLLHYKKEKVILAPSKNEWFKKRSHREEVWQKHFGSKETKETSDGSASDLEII
Described as above.

The target in assay [3] is T3, Mcm10 ID (internal deletion of residues 100–150, two-hybrid fusion) (S. cerevisiae) (UniProt P32354).
T3 sequence: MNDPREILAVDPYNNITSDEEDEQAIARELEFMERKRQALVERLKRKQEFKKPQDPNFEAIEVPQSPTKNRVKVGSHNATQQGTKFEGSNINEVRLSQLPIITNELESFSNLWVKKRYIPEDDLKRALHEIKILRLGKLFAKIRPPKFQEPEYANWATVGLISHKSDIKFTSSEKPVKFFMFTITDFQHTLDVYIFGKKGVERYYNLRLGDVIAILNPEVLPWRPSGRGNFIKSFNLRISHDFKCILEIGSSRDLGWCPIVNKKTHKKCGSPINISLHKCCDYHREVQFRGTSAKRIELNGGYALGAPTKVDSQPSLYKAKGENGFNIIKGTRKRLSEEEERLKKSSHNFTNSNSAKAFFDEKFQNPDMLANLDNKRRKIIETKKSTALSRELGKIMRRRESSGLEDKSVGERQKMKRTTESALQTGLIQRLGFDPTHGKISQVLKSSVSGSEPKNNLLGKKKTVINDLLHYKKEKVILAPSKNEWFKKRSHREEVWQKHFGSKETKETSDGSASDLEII
In words: two-hybrid; yeast two-hybrid with pBTM116 (LexA) and pACT2 fusions; β-galactosidase activity in cell extracts, in triplicate from at least three clones.

The target in assay [4] is T4, Mcm10 L242A (two-hybrid fusion) (S. cerevisiae) (UniProt P32354).
T4 sequence: T1 sequence with L242A
The description is as above.

In assay [5] the target is T5, Mcm10Δ130 (LexA fusion) (S. cerevisiae) (UniProt P32354).
T5 sequence: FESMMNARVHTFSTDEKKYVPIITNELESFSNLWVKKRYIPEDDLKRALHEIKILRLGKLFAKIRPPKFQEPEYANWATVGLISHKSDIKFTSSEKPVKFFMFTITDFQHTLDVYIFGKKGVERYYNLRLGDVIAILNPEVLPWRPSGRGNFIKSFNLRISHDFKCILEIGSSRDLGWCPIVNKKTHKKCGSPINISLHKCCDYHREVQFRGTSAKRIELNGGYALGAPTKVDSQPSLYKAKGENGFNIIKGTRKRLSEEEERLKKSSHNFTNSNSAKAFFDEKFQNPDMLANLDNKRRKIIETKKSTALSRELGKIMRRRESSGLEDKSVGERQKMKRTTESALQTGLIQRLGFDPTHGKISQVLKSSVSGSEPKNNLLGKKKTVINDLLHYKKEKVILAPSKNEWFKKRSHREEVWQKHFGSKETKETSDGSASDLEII
The assay is described as above.

B1: Mec3 (pACT2 fusion, wild type) (protein, UniProt Q02574 1-474)
chain: MKLKLIVNGCEAPDDYKLLRTTINTVASLRKTAILRFNSERLTIISTPKSSLNSSNNGTILRGDTGQLWCTIPHDVFRLYTVISARELNTITMECNCDSLLSVFKRYDRVMNQGSSSNMTIKLQSMPEWNTNNGTLSGGTAGGVDTTSKPNPICALGITFEEIVHTSGPNDAIVMNGGVDEHNGLPTTVGTGNLLASNKVIMHSFKVPVKLLFRAQDTRIQEPMINYIQLMMYKLPPISGEFGSAFHGFIRRVERYSNVNHIHLMGVKKKEHGNEGDDVELKIIVNELDWHLEICWNGPLDSVIQRQEGLTDNPSQNQHIDTDGRQEEGSLPIIEADKPMSSLYTNTRDREMEENIRYDEDLLRIEDSSIADTRGNIYTADTSGDTEFNDISVMVEKAEQESSSTHEVIIRCKDWKVCSKLYAAFEEVVLAISHDESCVFHCSLDRGSLEDSEDVEKPRERGQIIYYIARSKGL
Turning to B1, the binding result in assay [1] is “binds”; in assay [2] it was “binds”; in assay [3] it was “binds”; in assay [4], “binds weakly”; in assay [5], “binds”.
